Laboratory results published in PubChem BioAssay AID330 (DTP/NCI, 2004).
The list does not hold the whole screen: it gathers tests that were run many times, whatever their T/C, doses with no T/C, and many T/C values between a quarter and a half above the control. Other doses and runs of a compound stand elsewhere. T/C gives the treated animals as a percentage of the vehicle group. Some entries give survivors of the animals treated and no T/C: the source holds a T/C of zero for them, seemingly a mark for toxic or unscored doses. Some survivor counts are full or nearly so, which does not show that the dose was tolerated: the source hardly ever lists a survival T/C far under the control, and the zero likely stands for such cases as well. Counts of survivors are from the toxicity check (mostly the fifth day) where no day follows; animals may have died later. Schedule codes are those of the source, read here as Q, the interval in days (D) or hours (H), X, the number of doses. Some entries hold several experiments; the values are given in rising order. Where survival is the endpoint, this PubChem deposit counts one and a half times the control or more as active, and values a quarter to a half above the control carry no call in these data; other NCI protocols may use other cut-offs. Some T/C values carry the count of animals alive at the toxicity check (mostly the fifth day); where none is given, no animal had died by that day.

System: P388 leukemia ip, CD2F1 mice, survival T/C
Test: NCI In Vivo Anticancer Drug Screen. Data for tumor model P388 Leukemia (intraperitoneal) in CD2F1 (CDF1) mice
Conditions: T/C endpoint: median survival time, higher T/C = longer survival
[1] = dose: 0.42 mg/kg/injection, schedule: Q01DX009 (ip), vehicle: saline
[2] = dose: 100.0 mg/kg/injection, schedule: Q01DX009 (ip), vehicle: Klucel (hydroxypropylcellulose) (HPC)
[3] = dose: 200.0 mg/kg/injection, schedule: Q01DX009 (ip), vehicle: Klucel (hydroxypropylcellulose) (HPC)
[4] = dose: 50.0 mg/kg/injection, schedule: Q01DX009 (ip), vehicle: saline
[5] = dose: 50.0 mg/kg/injection, schedule: Q01DX005 (ip), vehicle: saline with Tween-80
[6] = dose: 25.0 mg/kg/injection, schedule: Q01DX009 (ip), vehicle: distilled water + Tween-80
[7] = dose: 50.0 mg/kg/injection, schedule: Q01DX009 (ip), vehicle: distilled water + Tween-80
[8] = dose: 100.0 mg/kg/injection, schedule: Q01DX009 (ip), vehicle: distilled water + Tween-80
[9] = dose: 200.0 mg/kg/injection, schedule: Q01DX009 (ip), vehicle: distilled water + Tween-80

For `CCN1/C(=C/C=C/C=C/c2sc3ccccc3[n+]2CC)Sc2ccccc21`, the T/C (dose: 0.08 mg/kg/injection, schedule: Q01DX009 (ip), vehicle: saline) was 131 % of control, the T/C (dose: 0.1 mg/kg/injection, schedule: Q01DX009 (ip), vehicle: saline) was 132 % of control and the T/C (dose: 0.12 mg/kg/injection, schedule: Q01DX009 (ip), vehicle: saline) was 127 and 137 % of control [5 of 6 alive]. The T/C (dose: 0.19 mg/kg/injection, schedule: Q01DX009 (ip), vehicle: saline) was 127 and 144 % of control [5 of 6 alive], the T/C (dose: 0.2 mg/kg/injection, schedule: Q01DX009 (ip), vehicle: saline) was 137 % of control and the T/C (dose: 0.25 mg/kg/injection, schedule: Q01DX009 (ip), vehicle: saline) was 134 % of control [5 of 6 alive]. For the same compound, the survivor count (dose: 0.28 mg/kg/injection, schedule: Q01DX009 (ip), vehicle: saline) was 2 of 6, the T/C (dose: 0.3 mg/kg/injection, schedule: Q01DX009 (ip), vehicle: saline) was 138 % of control and the T/C (dose: 0.4 mg/kg/injection, schedule: Q01DX009 (ip), vehicle: saline) was 137 % of control. The T/C [1] was 130 % of control, the survivor count [1] was 2 of 6 and the survivor count (dose: 0.5 mg/kg/injection, schedule: Q01DX009 (ip), vehicle: saline) was 2 of 6. For the same compound, the survivor count (dose: 1.0 mg/kg/injection, schedule: Q01DX009 (ip), vehicle: saline) was 2 of 6.

`CC(=O)/C(=C\c1cccs1)C(=O)CCN(C)C` was tested, and the T/C (dose: 240.0 mg/kg/injection, schedule: Q01DX005 (ip), vehicle: saline) was 129 % of control and the survivor count (dose: 480.0 mg/kg/injection, schedule: Q01DX005 (ip), vehicle: saline) was 2 of 6.

In the case of `CC/C(=C(\c1ccccc1)c1ccc(OCCN(C)C)cc1)c1ccccc1`, the survivor count (dose: 200.0 mg/kg/injection, schedule: Q01DX009 (ip), vehicle: suspension in saline) is reported as 4 of 6 and the survivor count (dose: 400.0 mg/kg/injection, schedule: Q01DX009 (ip), vehicle: suspension in saline) is reported as 0 of 6.

`NC(Cc1ccc(O)cc1)C(=O)OC1CCCCC1` (stereo not drawn) was tested, and the survivor count (dose: 100.0 mg/kg/injection, schedule: Q04DX003 (ip), vehicle: saline with Tween-80) was 6 of 6.

`CCOC(=O)CC1CC2c3cc(OC)c(OC)cc3CCN2CC1CC` (stereo not drawn) was tested, and the survivor count [2] was 5 of 6 and the survivor count [3] was 2 of 6.

For `CCN(CC)Cc1c(O)c(N=Nc2cccc3ccccc23)cc2ccccc12`, the survivor count (dose: 25.0 mg/kg/injection, schedule: Q01DX009 (ip), vehicle: Klucel (hydroxypropylcellulose) (HPC)) was 6 of 6, the survivor count (dose: 50.0 mg/kg/injection, schedule: Q01DX009 (ip), vehicle: Klucel (hydroxypropylcellulose) (HPC)) was 0 of 6 and 3 of 6 and the survivor count [2] was 0 of 6. For the same compound, the survivor count [3] was 0 of 6.

With `C=C(Br)CC(N)C(=O)O` (stereo not drawn) the survivor count (dose: 200.0 mg/kg/injection, schedule: Q01DX005 (ip), vehicle: Klucel (hydroxypropylcellulose) (HPC)) was 3 of 5.

With `CNC(=O)OCc1c(COC(=O)NC)c(C)n(-c2ccc(Br)cc2)c1C` the T/C (dose: 25.0 mg/kg/injection, schedule: Q01DX009 (ip), vehicle: saline) was 142 % of control and the survivor count [4] was 5 of 6.

`COc1cc2c[n+](C)c3c(c2cc1OC)Cc1cc2c(cc1-3)OCO2` was tested, and the T/C (dose: 12.5 mg/kg/injection, schedule: Q01DX005 (ip), vehicle: saline with Tween-80) was 134 % of control, the T/C [5] was 149 % of control and the survivor count (dose: 100.0 mg/kg/injection, schedule: Q01DX005 (ip), vehicle: saline) was 5 of 6. For the same compound, the survivor count (dose: 200.0 mg/kg/injection, schedule: Q01DX005 (ip), vehicle: saline) was 0 of 6.

In the case of `COc1cc2c(cc1OC)[C@H](c1cc(Br)c(O)c(OC)c1)[C@H]1C(=O)OCC1C2` (stereo partly drawn), the survivor count [5] is reported as 6 of 6.

With `Cc1[nH]c2ccc(N(C)C)cc2c(=O)c1CN(Cc1ccccc1)Cc1c(C)[nH]c2ccc(N(C)C)cc2c1=O` the survivor count (dose: 60.0 mg/kg/injection, schedule: Q01DX005 (ip), vehicle: Klucel (hydroxypropylcellulose) (HPC)) was 6 of 6, the survivor count (dose: 120.0 mg/kg/injection, schedule: Q01DX005 (ip), vehicle: Klucel (hydroxypropylcellulose) (HPC)) was 6 of 6 and the survivor count (dose: 240.0 mg/kg/injection, schedule: Q01DX005 (ip), vehicle: Klucel (hydroxypropylcellulose) (HPC)) was 6 of 6.

`CN(C)[C@@H]1C(=O)C(C(=O)NCNC2(C(=O)O)CCCC2)=C(O)[C@@]2(O)C(=O)C3=C(O)c4c(O)cccc4[C@@](C)(O)[C@H]3C[C@@H]12` was tested, and the survivor count (dose: 50.0 mg/kg/injection, schedule: Q01DX009 (ip), vehicle: suspension in saline) was 5 of 6.

For `CC(=O)NCc1cc(C)c(CBr)cc1CBr`, the survivor count (dose: 12.5 mg/kg/injection, schedule: Q01DX009 (ip), vehicle: distilled water + Tween-80) was 5 of 6, the survivor count [6] was 0 of 6 and the survivor count [7] was 0 of 6. The survivor count [8] was 0 of 6 and the survivor count [9] was 0 of 6.

`CCCCCCC[N+]1(CC)CCCCC1` was tested, and the survivor count [4] was 3 of 6, the survivor count (dose: 100.0 mg/kg/injection, schedule: Q01DX009 (ip), vehicle: saline) was 0 of 6 and the survivor count (dose: 200.0 mg/kg/injection, schedule: Q01DX009 (ip), vehicle: saline) was 0 of 6.

For `CC(=O)OCC1=CC2OC(=O)C3=COC(OC4OC(CO)C(O)C(O)C4O)C1C32` (stereo not drawn), the survivor count [3] was 6 of 6.

In the case of `N#Cc1ccc(C(=O)C=C(C(F)(F)F)C(F)(F)F)cc1`, the T/C (dose: 5.56 mg/kg/injection, schedule: Q01DX009 (ip), vehicle: saline + alcohol) is reported as 127 % of control, the T/C (dose: 6.25 mg/kg/injection, schedule: Q01DX009 (ip), vehicle: other) is reported as 130 % of control and the T/C (dose: 8.33 mg/kg/injection, schedule: Q01DX009 (ip), vehicle: other) is reported as 140 % of control. The T/C (dose: 8.33 mg/kg/injection, schedule: Q01DX009 (ip), vehicle: saline + alcohol) was 131 % of control, the T/C (dose: 12.5 mg/kg/injection, schedule: Q01DX009 (ip), vehicle: other) was 125 and 130 % of control and the T/C (dose: 12.5 mg/kg/injection, schedule: Q01DX009 (ip), vehicle: saline + alcohol) was 136 % of control. The T/C (dose: 18.7 mg/kg/injection, schedule: Q01DX009 (ip), vehicle: other) was 140 % of control and the survivor count (dose: 18.7 mg/kg/injection, schedule: Q01DX009 (ip), vehicle: saline + alcohol) was 3 of 6.

`C(CCC1CO1)CC1CO1` (stereo not drawn) was tested, and the survivor count (dose: 200.0 mg/kg/injection, schedule: Q04DX002 (ip), vehicle: Klucel (hydroxypropylcellulose) (HPC)) was 6 of 6 and the survivor count (dose: 400.0 mg/kg/injection, schedule: Q04DX002 (ip), vehicle: Klucel (hydroxypropylcellulose) (HPC)) was 6 of 6.

In the case of `CCCCCC(CN(C)C)C(=O)/C=C/c1ccc(Cl)c(Cl)c1` (stereo not drawn), the survivor count [4] is reported as 0 of 6.

With `CCCCCCCCCCCCCCCCCC[n+]1cccc(C2CCCN2C)c1` (stereo not drawn) (tested in a mixture with another compound) the T/C (dose: 3.12 mg/kg/injection, schedule: Q01DX009 (ip), vehicle: Klucel (hydroxypropylcellulose) (HPC)) was 134 % of control, the T/C (dose: 6.25 mg/kg/injection, schedule: Q01DX009 (ip), vehicle: Klucel (hydroxypropylcellulose) (HPC)) was 138 % of control and the T/C (dose: 12.5 mg/kg/injection, schedule: Q01DX009 (ip), vehicle: Klucel (hydroxypropylcellulose) (HPC)) was 142 % of control.

For `CC(=O)NS(=O)(=O)c1ccc(N=NC2=C(O)C(c3ccccc3)N(c3ccccc3)C2=O)cc1` (stereo not drawn), the survivor count (dose: 240.0 mg/kg/injection, schedule: Q01DX005 (ip), vehicle: saline with Tween-80) was 2 of 6.

In the case of `CC(=O)Oc1c([N+](=O)[O-])cccc1[N+](=O)[O-]`, the T/C [6] is reported as 126 % of control [5 of 6 alive], the survivor count [6] is reported as 4 of 6 and the survivor count (dose: 50.0 mg/kg/injection, schedule: Q01DX009 (ip), vehicle: clinical formulation) is reported as 3 of 6. The survivor count [7] was 3 of 6, the survivor count (dose: 100.0 mg/kg/injection, schedule: Q01DX009 (ip), vehicle: clinical formulation) was 2 of 6 and the survivor count [8] was 1 of 6. For the same compound, the survivor count [9] was 0 of 6 and the survivor count (dose: 400.0 mg/kg/injection, schedule: Q01DX009 (ip), vehicle: distilled water + Tween-80) was 0 of 6.
